Measured values taken from PMC9672452.
No constants are given. Whether binding was seen depends on the method and setting. Some entries that bind do so weakly or less than the wild type.

By UniProt entry, the sequences of proteins in these tests, tags left out. Where a name states a change or a piece, a line headed by the entry shows the natural chain unless it says otherwise. Chains listed by the source or under a name are the forms on record and can include a tag or linker. Residues count along the entry.
full-length human NOTCH1 D464N (EGF12) (P46531, form named): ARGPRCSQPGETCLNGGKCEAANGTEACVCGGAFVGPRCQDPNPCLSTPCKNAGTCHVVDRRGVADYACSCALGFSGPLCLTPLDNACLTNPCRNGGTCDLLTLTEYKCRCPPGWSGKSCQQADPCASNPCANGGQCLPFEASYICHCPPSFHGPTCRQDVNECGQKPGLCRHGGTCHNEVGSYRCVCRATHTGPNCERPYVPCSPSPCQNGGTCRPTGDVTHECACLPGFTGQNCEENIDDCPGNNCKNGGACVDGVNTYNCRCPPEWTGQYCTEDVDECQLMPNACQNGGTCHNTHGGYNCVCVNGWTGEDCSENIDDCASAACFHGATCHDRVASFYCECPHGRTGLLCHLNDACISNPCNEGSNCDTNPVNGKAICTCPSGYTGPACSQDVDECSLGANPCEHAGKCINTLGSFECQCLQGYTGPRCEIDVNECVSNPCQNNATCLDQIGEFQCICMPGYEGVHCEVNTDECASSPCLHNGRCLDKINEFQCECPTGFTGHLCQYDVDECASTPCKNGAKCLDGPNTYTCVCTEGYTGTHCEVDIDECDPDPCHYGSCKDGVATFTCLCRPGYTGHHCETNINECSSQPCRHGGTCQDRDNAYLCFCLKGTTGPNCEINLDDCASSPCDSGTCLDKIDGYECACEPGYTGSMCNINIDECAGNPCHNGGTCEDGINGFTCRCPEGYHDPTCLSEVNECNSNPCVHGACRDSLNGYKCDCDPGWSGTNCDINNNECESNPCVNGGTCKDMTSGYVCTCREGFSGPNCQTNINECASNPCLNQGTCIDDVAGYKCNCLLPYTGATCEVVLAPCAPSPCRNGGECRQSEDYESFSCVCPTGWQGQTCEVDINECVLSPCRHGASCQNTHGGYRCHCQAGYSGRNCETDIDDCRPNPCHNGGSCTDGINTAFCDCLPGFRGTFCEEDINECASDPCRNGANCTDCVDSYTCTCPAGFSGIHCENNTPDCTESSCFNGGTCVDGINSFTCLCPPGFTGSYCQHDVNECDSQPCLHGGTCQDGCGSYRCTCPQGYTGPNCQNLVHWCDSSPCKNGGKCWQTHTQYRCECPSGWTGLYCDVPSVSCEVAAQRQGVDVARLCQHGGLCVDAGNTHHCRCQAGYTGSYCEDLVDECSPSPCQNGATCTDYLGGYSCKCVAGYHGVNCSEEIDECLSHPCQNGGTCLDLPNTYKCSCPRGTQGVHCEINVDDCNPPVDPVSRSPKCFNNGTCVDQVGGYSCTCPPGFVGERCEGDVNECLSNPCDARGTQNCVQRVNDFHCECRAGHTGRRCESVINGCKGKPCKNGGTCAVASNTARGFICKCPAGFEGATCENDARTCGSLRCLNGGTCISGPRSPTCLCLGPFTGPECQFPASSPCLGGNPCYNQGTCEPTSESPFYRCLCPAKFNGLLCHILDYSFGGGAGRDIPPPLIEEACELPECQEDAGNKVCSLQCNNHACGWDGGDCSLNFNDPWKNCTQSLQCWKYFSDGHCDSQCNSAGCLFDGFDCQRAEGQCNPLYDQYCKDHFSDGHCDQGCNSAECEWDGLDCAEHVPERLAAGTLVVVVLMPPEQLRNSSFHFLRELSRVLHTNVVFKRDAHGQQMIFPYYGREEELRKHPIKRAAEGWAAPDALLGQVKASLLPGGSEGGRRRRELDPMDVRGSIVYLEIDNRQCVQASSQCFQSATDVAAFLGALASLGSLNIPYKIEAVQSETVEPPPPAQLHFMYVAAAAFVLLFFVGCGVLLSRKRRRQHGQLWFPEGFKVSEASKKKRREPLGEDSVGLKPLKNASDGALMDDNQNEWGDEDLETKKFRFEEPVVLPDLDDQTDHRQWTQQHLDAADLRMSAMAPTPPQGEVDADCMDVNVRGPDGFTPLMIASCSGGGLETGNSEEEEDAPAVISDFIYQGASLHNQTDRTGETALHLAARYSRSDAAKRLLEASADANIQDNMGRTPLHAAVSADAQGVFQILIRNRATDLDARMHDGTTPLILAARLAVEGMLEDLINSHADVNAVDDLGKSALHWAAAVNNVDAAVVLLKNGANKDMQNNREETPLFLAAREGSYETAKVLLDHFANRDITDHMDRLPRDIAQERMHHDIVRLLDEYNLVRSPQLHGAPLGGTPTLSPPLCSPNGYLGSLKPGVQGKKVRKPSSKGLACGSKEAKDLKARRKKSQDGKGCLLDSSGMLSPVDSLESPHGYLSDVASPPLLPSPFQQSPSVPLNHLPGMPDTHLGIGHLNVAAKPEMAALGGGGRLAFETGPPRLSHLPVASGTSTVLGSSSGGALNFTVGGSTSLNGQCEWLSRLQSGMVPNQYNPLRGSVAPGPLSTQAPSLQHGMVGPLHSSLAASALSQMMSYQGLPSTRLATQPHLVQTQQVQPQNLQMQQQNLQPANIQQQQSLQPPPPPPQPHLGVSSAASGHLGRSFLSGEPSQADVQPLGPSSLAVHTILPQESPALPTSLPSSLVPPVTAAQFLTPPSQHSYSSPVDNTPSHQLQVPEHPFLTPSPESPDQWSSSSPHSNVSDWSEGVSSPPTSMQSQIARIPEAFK
full-length human NOTCH1 G230R (EGF6) (P46531, form named): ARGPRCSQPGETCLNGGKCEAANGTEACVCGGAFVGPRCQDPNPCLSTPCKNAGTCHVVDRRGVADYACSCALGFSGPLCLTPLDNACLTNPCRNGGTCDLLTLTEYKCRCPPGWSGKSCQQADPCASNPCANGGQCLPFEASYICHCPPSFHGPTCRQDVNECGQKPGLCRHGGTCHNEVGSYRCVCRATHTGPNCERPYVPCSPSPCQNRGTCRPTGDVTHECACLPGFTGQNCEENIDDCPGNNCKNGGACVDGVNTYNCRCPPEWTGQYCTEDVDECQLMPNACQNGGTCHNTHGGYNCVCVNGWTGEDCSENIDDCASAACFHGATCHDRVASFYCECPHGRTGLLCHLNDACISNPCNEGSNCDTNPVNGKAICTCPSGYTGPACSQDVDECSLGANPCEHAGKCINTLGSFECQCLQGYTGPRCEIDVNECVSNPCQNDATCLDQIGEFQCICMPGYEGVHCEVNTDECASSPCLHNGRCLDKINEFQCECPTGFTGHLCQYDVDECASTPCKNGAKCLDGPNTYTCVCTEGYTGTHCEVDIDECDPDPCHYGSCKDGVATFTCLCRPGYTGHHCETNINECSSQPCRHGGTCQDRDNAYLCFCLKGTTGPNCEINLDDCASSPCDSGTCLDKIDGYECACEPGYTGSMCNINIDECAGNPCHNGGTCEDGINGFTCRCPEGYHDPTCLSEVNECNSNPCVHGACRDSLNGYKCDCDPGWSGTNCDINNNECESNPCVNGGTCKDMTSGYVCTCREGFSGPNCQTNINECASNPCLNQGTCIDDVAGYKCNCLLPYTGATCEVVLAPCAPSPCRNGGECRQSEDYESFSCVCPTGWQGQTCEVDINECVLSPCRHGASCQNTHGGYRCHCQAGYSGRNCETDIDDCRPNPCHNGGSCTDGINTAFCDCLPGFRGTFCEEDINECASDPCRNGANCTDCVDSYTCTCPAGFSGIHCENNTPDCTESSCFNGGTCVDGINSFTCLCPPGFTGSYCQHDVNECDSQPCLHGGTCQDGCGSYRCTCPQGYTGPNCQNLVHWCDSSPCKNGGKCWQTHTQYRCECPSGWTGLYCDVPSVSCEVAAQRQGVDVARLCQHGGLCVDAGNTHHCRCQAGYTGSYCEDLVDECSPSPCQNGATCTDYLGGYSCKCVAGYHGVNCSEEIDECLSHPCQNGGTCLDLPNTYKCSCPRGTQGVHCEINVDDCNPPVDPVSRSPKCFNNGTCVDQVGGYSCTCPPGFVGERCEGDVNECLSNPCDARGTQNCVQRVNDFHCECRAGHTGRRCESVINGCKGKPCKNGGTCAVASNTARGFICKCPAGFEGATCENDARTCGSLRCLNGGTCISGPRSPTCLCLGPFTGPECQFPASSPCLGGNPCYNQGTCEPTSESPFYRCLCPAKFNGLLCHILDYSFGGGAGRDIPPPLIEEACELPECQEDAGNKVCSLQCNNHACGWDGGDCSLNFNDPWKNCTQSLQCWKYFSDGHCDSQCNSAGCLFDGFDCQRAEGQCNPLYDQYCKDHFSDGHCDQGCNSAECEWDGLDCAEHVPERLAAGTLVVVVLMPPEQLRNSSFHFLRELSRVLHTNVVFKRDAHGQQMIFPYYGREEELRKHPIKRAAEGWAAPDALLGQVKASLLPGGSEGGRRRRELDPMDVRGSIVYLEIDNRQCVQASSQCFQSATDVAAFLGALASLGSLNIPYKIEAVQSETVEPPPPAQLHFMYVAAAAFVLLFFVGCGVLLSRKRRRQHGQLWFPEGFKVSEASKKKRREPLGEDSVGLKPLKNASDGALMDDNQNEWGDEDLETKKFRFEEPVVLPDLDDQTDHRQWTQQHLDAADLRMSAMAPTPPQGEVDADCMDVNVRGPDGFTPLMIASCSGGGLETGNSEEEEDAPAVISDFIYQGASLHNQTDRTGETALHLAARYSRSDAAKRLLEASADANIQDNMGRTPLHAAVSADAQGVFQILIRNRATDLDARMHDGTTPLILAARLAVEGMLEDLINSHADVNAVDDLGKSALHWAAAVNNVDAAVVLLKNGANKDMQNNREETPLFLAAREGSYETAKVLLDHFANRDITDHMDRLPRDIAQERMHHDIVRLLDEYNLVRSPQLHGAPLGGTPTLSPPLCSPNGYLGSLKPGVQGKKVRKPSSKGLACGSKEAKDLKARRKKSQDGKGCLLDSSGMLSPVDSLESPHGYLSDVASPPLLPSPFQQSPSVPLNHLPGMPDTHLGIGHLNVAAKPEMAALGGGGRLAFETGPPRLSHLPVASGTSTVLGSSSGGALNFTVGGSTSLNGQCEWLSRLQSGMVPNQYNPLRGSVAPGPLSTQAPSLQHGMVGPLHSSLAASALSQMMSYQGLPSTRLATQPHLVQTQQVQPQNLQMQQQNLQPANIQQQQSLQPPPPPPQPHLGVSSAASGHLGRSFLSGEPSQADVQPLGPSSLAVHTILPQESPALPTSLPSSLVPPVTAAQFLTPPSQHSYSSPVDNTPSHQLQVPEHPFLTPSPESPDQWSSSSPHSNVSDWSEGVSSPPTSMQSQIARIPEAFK
UniProt O00548, residues 18-545: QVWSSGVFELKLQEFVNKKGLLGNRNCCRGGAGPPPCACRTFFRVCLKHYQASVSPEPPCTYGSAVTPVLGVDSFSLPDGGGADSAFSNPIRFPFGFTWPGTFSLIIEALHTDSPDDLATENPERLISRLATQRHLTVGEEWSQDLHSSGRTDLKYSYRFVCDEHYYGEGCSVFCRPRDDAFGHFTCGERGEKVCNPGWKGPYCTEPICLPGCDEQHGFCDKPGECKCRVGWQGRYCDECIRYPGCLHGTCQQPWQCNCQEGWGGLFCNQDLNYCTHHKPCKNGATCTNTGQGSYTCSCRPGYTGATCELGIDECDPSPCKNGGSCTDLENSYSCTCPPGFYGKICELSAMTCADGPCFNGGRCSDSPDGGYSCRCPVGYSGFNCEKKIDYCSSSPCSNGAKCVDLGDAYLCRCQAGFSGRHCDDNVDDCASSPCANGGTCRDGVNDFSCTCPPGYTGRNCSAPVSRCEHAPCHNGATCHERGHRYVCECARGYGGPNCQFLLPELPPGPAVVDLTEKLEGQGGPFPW

Legend:
Assay in all cases: flow cytometry on cells; CHO cells transfected with N1 (WT or mutant), EV or LFNG, and RFP; 100 nM ligand-Fc with PE anti-Fc antibody in binding buffer (Hank's balanced salt solution, 1% bovine calf serum, 0.05% azide, 1 mM CaCl2) on ice for 1 h; PE mean fluorescent intensity of RFP-gated cells; only the binder purified
[1] = target: full-length human NOTCH1 D464N (EGF12) (human) (UniProt P46531)
[2] = target: full-length human NOTCH1 G230R (EGF6) (human) (UniProt P46531)
[3] = target: full-length human NOTCH1 G309R (EGF8) (human) (UniProt P46531)
[4] = target: full-length human NOTCH1 G310R (EGF8) (human) (UniProt P46531)
[5] = target: full-length human NOTCH1 G347S (EGF9) (human) (UniProt P46531)
[6] = target: full-length human NOTCH1 T311P (EGF8) (human) (UniProt P46531)
[7] = target: full-length human NOTCH1 T349P (EGF9) (human) (UniProt P46531)

Measured: binding

DLL1-Fc (from UniProt O00548 18-545) (Fc fusion)
binds: all assays above

JAG1-Fc (from UniProt P78504 34-1067) (Fc fusion)
binds: all assays above
